Measured values: PubChem BioAssay AID540256 (National Center for Advancing Translational Sciences (NCATS), 2011)
Values joined by “and” are separate entries in the source; they are usually repeats but may differ in a detail not shown here. Equal entries are not always repeated. The campaign covered roughly 300,000 compounds. About 3,700 (1.2%) were called active. The inconclusive results got no clear call from the source; some entries with a clear call stand among them for comparison. The call rests on the fitted dose curve; tested in HEK293 cells. Potencies of inconclusive entries are doubtful fits and often do not repeat.
Potency means the concentration at half of the fitted maximal effect.

Test: qHTS for Inhibitors of binding or entry into cells for Lassa Virus; further: nearly all actives have a fitted effect of over 50% in size
Details: Lassa virus pseudotype entry inhibition, cell reporter; series mostly up to 37.9 µM
For `CC(C)OC(=O)c1cc2c(ccn2C)n1CC(=O)N1CCC(Cc2ccccc2)CC1`, the Potency was inconclusive: 22.4 µM [inhibitor, partial curve, poor fit].
In the case of `O=C(c1ccc(Oc2ccc([N+](=O)[O-])cc2)cc1)N1CCCCCC1`, the Potency is reported as inconclusive: 2.51 µM [inhibitor, full curve, poor fit].
In the case of `O=C(Nc1nc(-c2ccc(S(=O)(=O)N3CCOCC3)cc2)cs1)c1ccccc1`, the Potency is reported as inconclusive: 12.6 µM [inhibitor, partial curve, poor fit] and inconclusive: 11.2 µM [inhibitor, partial curve, poor fit].
For `COc1ccc(NC(=O)CN2C(=O)COc3ccc(S(=O)(=O)Nc4ccccc4)cc32)cc1`, the Potency was “inactive”.
In the case of `Cn1c(=O)n(C)c2cc([N+](=O)[O-])c(N3CCN(S(=O)(=O)c4ccc(C(C)(C)C)cc4)CC3)cc21`, the Potency is reported as inconclusive: 18.3 µM [inhibitor, single point].
For `O=C(O)CCn1ncc2ccccc2c1=O`, the Potency was “inactive”.
In the case of `Cc1ccc(CN2CCCC(C(=O)N3CCCC3)C2)cc1` (centres undefined), the Potency is reported as inconclusive: 0.631 µM [inhibitor, single point].
With `O=C(C1CCN(Cc2ccc(F)cc2)CC1)N(CCc1ccccc1)Cc1ccccc1` the Potency was inconclusive: 23.1 µM [inhibitor, single point].
In the case of `CSc1ccc(CN(C)CC(=O)Nc2ccc(C)cc2Br)cc1`, the Potency is reported as “inactive”.
For `C=CCNC(=S)N/N=C/c1ccc(OCc2ccccc2Cl)cc1`, the Potency was inconclusive: 16.4 µM [inhibitor, single point].
For `C=C[C@H]1C[C@H]2C=C(C)COP(=O)(O2)O1`, the Potency was inconclusive: 0.025 µM [activator, full curve].
For `Nc1ccc(N2CCCCC2)c(S(=O)(=O)Nc2ccccc2Cl)c1`, the Potency was inconclusive: 10 µM [activator, partial curve, poor fit].
In the case of `COc1ccccc1/C=C/C(=O)OCc1nc2ccccc2c(=O)[nH]1`, the Potency is reported as “inactive”.
In the case of `CCCc1cc(-c2[nH]ncc2-c2ccc3c(c2)OCCCO3)c(O)cc1O`, the Potency is reported as inconclusive: 32.6 µM [inhibitor, single point].
With `CCC(c1nnnn1Cc1ccc2c(c1)OCO2)N1CCN(CC)CC1` (centres undefined) the Potency was inconclusive: 3.98 µM [inhibitor, single point].
In the case of `COc1ccc(-c2onc(C)c2C)cc1S(=O)(=O)NCc1ccco1`, the Potency is reported as inconclusive: 4.47 µM [inhibitor, partial curve, poor fit].
In the case of `O=C(CN1CCN(C(=O)c2ccc(-c3nc4ccccc4s3)o2)CC1)Nc1ccccc1Cl`, the Potency is reported as inconclusive: 15.8 µM [inhibitor, partial curve, poor fit].
For `O=C(CSc1nnc(-c2cccnc2)n1CCN1CCCCC1)Nc1cccc(Cl)c1`, the Potency was inconclusive: 0.631 µM [inhibitor, partial curve, poor fit].
With `COc1ccc(CNS(=O)(=O)c2ccc3c(c2)N(C(C)=O)CC(C)S3)cc1` (centres undefined) the Potency was inconclusive: 14.1 µM [inhibitor, partial curve, poor fit].
In the case of `CCC(C)Oc1cccc(OCCCCN2C(=O)NC(C)(C)C2=O)c1` (centres undefined), the Potency is reported as inconclusive: 18.3 µM [inhibitor, partial curve, poor fit].
In the case of `CCOc1ccc(C(=O)NCc2ccc3c(c2)CCN3C(=O)c2ccccc2)cc1`, the Potency is reported as “inactive”.
For `CCCCSCCCNC(=O)c1ccc(CS(=O)(=O)c2ccccc2OC)o1`, the Potency was inconclusive: 35.5 µM [inhibitor, partial curve, poor fit].
With `CC(C)c1nnc(NC(=O)CCS(=O)(=O)c2nc(-c3cccs3)cc(C(F)(F)F)n2)s1` the Potency was inconclusive: 29.1 µM [inhibitor, single point].
For `CN(C)S(=O)(=O)N1CCC(c2ccc(F)cc2)C(COc2ccc3c(c2)OCO3)C1` (centres undefined), the Potency was inconclusive: 35.5 µM [inhibitor, single point].
With `COc1ccc(/C=C2\CC/C(=C\c3ccc(OC)c(OC)c3)C2=O)cc1OC` the Potency was inconclusive: 15.8 µM [inhibitor, single point].
With `COC(=O)c1ccccc1NC(=O)c1ccc2c(c1)OCCCO2` the Potency was inconclusive: 17.8 µM [inhibitor, single point].
For `Cn1c2ccccc2c2c(C(=O)N3CCN(c4ccc(F)cc4)CC3)cn(C3CCCC3)c(=O)c21`, the Potency was active: 10 µM.
With `Cc1cc(C)n(CC(=O)N2c3ccccc3Sc3ccccc32)n1` the Potency was “inactive”.
For `Cn1c(=O)c2c(ncn2CC(=O)OCC(=O)Nc2ccc(Cl)cc2)n(C)c1=O`, the Potency was inconclusive: 29.1 µM [activator, single point].
With `CCCNC(=O)N1C2=NC(C(=O)OC)=C(C(=O)OC)[C@@H]3N(C)c4ccc(OC)cc4[C@]23C[C@H]1C(=O)OC` the Potency was inconclusive: 7.5 µM [inhibitor, single point].
For `Cc1ccccc1OCC(=O)Nc1nc2ccccc2[nH]1`, the Potency was “inactive”.
With `CCS(=O)(=O)c1ncc(N(Cc2ccco2)Cc2sccc2C)c(C(=O)Nc2ccc(C)cc2C)n1` the Potency was “inactive”.
With `Cc1cccc(OCC(=O)NC2CCCC2)c1` the Potency was inconclusive: 6.31 µM [activator, full curve, poor fit].
For `C=C(C)COc1ccc(-c2ncnc(C(F)(F)F)c2-c2ccc(OC)cc2)c(O)c1`, the Potency was “inactive”.
For `Cc1ccc(S(=O)(=O)N(CCCc2c(C)nc[nH]c2=O)c2ccccc2)cc1`, the Potency was inconclusive: 15.8 µM [inhibitor, single point].
For `CCCOc1ccc(C(=O)Nc2cccc(NC(=O)c3cccc(Cl)c3)c2)cc1`, the Potency was “inactive”.
In the case of `COc1cccc(C=Nc2ccccc2C(=O)Nc2ccccc2)c1O`, the Potency is reported as inconclusive: 29.1 µM [inhibitor, single point].
In the case of `CC(C)CN1C(=O)/C(=C/c2cccs2)NC1=S`, the Potency is reported as “inactive”.
With `CCC(=O)N1CCc2cc(S(=O)(=O)NC(CC(C)C)C(=O)Nc3cc(C)ccc3OC)ccc21` (centres undefined) the Potency was “inactive”.
With `CCOc1ccc(NC(=O)C(C)Sc2nnnn2C)cc1` (centres undefined) the Potency was “inactive”.
With `CCNC(=S)Nc1cc(OCC)c(NC(=O)c2ccco2)cc1OCC` the Potency was inconclusive: 5.62 µM [activator, single point].
In the case of `Cc1cc(=O)oc2c(C)c(OCC(=O)N3CCN(c4ccccc4)CC3)ccc12`, the Potency is reported as inconclusive: 6.31 µM [inhibitor, single point].
For `O=S(=O)(c1ccc(N2CCC(c3ccc(Cl)cc3)=N2)cc1)N(CCO)CCO`, the Potency was “inactive”.
With `Cc1csc(=O)n1CC(=O)OCC(=O)Nc1cc(Cl)ccc1[N+](=O)[O-]` the Potency was “inactive”.
With `COc1ccc(C(=O)N(CCc2ccccc2)Cc2cccs2)c(OC)c1` the Potency was inconclusive: 11.2 µM [inhibitor, partial curve, poor fit].
For `Cc1cc(C)cc(N(CC(=O)NCCSc2ccccn2)S(=O)(=O)c2ccccc2)c1`, the Potency was inconclusive: 11.2 µM [inhibitor, partial curve, poor fit].
With `CC(=O)c1c(C)[nH]c(C(=O)Nc2nc(-c3ccc(-c4ccccc4)cc3)cs2)c1C` the Potency was inconclusive: 22.4 µM [inhibitor, single point].
In the case of `CC1=C(C(=O)Nc2ccc(C)cc2C)C(c2ccc(O)cc2)n2nnnc2N1` (centres undefined), the Potency is reported as inconclusive: 3.16 µM [inhibitor, partial curve, poor fit].
For `Cc1ccc(C)c(NS(=O)(=O)c2cc(C(=O)Nc3ccccc3-c3ccccc3)ccc2Cl)c1`, the Potency was inconclusive: 4.11 µM [inhibitor, full curve, poor fit].
In the case of `Cc1ccc(N2C(=O)N(CC(=O)NCc3ccccc3Cl)C(=O)C2C)cc1` (centres undefined), the Potency is reported as inconclusive: 3.98 µM [inhibitor, partial curve, poor fit].
With `COc1ccc(/C=C\c2onc(C)c2S(=O)(=O)N2CCC(C(=O)Nc3ccc(C)cc3C)CC2)cc1` the Potency was “inactive”.
In the case of `O=[N+]([O-])c1cc(/C=N/N2CCCCC2)ccc1Cl`, the Potency is reported as inconclusive: 3.55 µM [inhibitor, single point].
For `O=C(c1ccco1)N1CCN(c2ncnc3c2[nH]c2ccc(Br)cc23)CC1`, the Potency was inconclusive: 35.5 µM [inhibitor, single point].
In the case of `COc1cc(C(=O)OCC(=O)N2c3ccccc3NC(=O)C2(C)C)ccc1OCC(C)C`, the Potency is reported as inconclusive: 35.5 µM [inhibitor, single point].
For `CCC12CN3CC(C)(CN(C1)C3c1c[nH]c3ccccc13)C2=O` (centres undefined), the Potency was “inactive”.
For `S=C(N=Nc1ccccc1)NNc1ccccc1`, the Potency was inconclusive: 23.1 µM [activator, single point].
In the case of `CCCN(CC(=O)c1cc(C)n(C)c1C)S(=O)(=O)c1cccc(C(F)(F)F)c1`, the Potency is reported as inconclusive: 35.5 µM [inhibitor, single point].
With `CCOC(=O)C1CCN(Cc2cnc(Oc3ccc(OC)cc3)s2)CC1` the Potency was active: 1.46 µM.
In the case of `COc1cc(C(=O)n2nc(-c3ccco3)nc2NCc2ccc(Cl)cc2)cc(OC)c1OC`, the Potency is reported as inconclusive: 0.562 µM [activator, full curve, poor fit].
For `O=C(CCl)NC(=O)NC12CC3CC(CC(C3)C1)C2`, the Potency was inconclusive: 22.4 µM [inhibitor, partial curve, poor fit].
In the case of `COCCn1c(C)cc(C(=O)CSc2nnc(C)s2)c1C`, the Potency is reported as inconclusive: 1 µM [inhibitor, full curve, poor fit].
For `COc1ccc(NC(=O)c2c(C)oc3ccc(O)c(CN4CCCC4)c23)cc1Cl`, the Potency was inconclusive: 14.1 µM [activator, partial curve, poor fit].
With `CCN(CC)S(=O)(=O)c1ccc(N2CCCC2)c(NC(=O)c2ccc(N3CCCC3=O)cc2)c1` the Potency was “inactive”.
In the case of `Cc1c(NC(=O)c2ccc(N3CCCC3)c([N+](=O)[O-])c2)cccc1-c1nc2ccccc2s1`, the Potency is reported as “inactive”.
